# Measurements from PubChem BioAssay AID504444 (National Center for Advancing Translational Sciences (NCATS), 2011).
# Several values for one entry are separate records, joined by “and”; a condition that tells them apart may be missing. Equal entries are not always repeated. Out of some 360,000 compounds screened, about 7,500 (2.1%) were called active. This list was built around the results that the source calls inconclusive (neither active nor inactive); the mix of calls is not that of the screen. Calls follow the shape of the dose curve; as a rule, active = well fitted inhibition curve with a large enough effect; inconclusive = small, poorly fitted or top-dose-only effect, or effect the other way; inactive = flat fitted curve, though single readings scatter. Where the call is inconclusive, the potency comes from a doubtful curve fit.
# Test: Nrf2 qHTS screen for inhibitors; also: nearly all actives have a fitted effect of over 60% in size
# Conditions: A549 ARE-Fluc reporter, luciferase luminescence, 18-24 h; series mostly up to 46 µM
# Method in brief: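 Quantitative HTS in A549 cells stably bearing an antioxidant response element-firefly luciferase construct. Inhibition of Nrf2-driven transcription was scored by luminescence after 18-24 h of compound exposure at 37 °C.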
# Potency is read from the fitted curve at half-maximal effect.
row,SMILES,Potency
1,O=C(CSC(=S)N1CCCCC1)c1ccccc1,"inconclusive: 29.1 µM [falling, single point]"
2,Cc1csc(NC(=O)C2CCN(S(=O)(=O)c3ccc4c(c3)oc(=O)n4C)CC2)n1,"inconclusive: 10.3 µM [falling, partial curve]"
3,Nc1cc(N)nc(SCc2cccc(F)c2)n1,"inconclusive: 8.2 µM [activator, partial curve]"
4,CC(C)Oc1ccc(CCC(=O)NNC(=S)NCc2ccccc2)cc1,inactive
5,O=C(N/N=C/C=C/c1ccccc1)c1cc2c(ccc3ccccc32)o1,"inconclusive: 20.6 µM [falling, partial curve, poor fit]"
6,CCCc1cc(=O)oc2cc(C)c3c(C(C)(C)C)coc3c12,inactive
7,COc1ccc(-n2nnnc2SCC(=O)Nc2ccc3c(c2)OCCO3)c(OC)c1,"inconclusive: 29.1 µM [falling, single point]"
8,O=S1(=O)N=C(Oc2ccccc2-c2ccccc2)c2ccccc21,inactive
9,COCCN1C(=O)N[C@@H](c2cccc(C(F)(F)F)c2)[C@H](C(C)=O)[C@H]1C,inactive
10,O=C(CCn1c(=O)c2cccn2c2cccnc21)NCc1ccccc1F,inactive
11,COc1cccc(NC(=O)c2ccc3[nH]c(C)cc(=O)c3c2)c1,inactive
12,N#Cc1nccnc1S(=O)(=O)c1cccs1,inactive
13,CC1(C)CC(=O)C(N=Nc2ccc(C(F)(F)F)cc2[N+](=O)[O-])=C(O)C1,inactive
14,CCN(CC)C(=O)Oc1ccc2c(c1)O/C(=C\c1ccco1)C2=O,"inconclusive: 5.8 µM [activator, partial curve, poor fit]"
15,O=C(OCC(=O)N1CCN(C(=O)c2ccco2)CC1)c1cc(-c2ccc(F)cc2)nc2ccccc12,inactive
16,CCOC(=O)N1CCN(C(=O)CN(C)S(=O)(=O)c2ccc(Cl)cc2)CC1,"inconclusive: 1.84 µM [falling, partial curve, poor fit]"
17,COc1ccc(N2CCN(C(=O)c3sc4nc5n(c(=O)c4c3C)CCC5)CC2)cc1,"inconclusive: 23.1 µM [activator, partial curve, poor fit]"
18,COCCNC(=O)c1ccc2c(=O)n(CCOC)c(SCC(=O)c3c[nH]c4ccccc34)nc2c1,"inconclusive: 29.1 µM [falling, single point]"
19,N#Cc1cccc(NCC(=O)Nc2cccc(S(=O)(=O)N3CCCCC3)c2)c1,"inconclusive: 20.6 µM [falling, single point]"
20,CCCNC(=O)N1C2=NC(C(=O)OC)=C(C(=O)OC)[C@@H]3N(Cc4ccccc4)c4ccccc4[C@]23C[C@H]1CO,inactive
21,CCc1cccc(NC(=O)c2oc3ccc4c(c3c2C)C(=O)CC(C)(C)O4)c1,"inconclusive: 6.51 µM [falling, single point]"
22,COc1cccc(CN2C(=O)C3(SCC(=O)N3c3ccc(C(C)C)cc3)c3ccccc32)c1 (stereo not drawn),"inconclusive: 29.1 µM [falling, single point]"

# Two of these compounds in another layout:
row	SMILES	Potency
7	COc1ccc(-n2nnnc2SCC(=O)Nc2ccc3c(c2)OCCO3)c(OC)c1	inconclusive: 29.1 µM [falling, single point]
8	O=S1(=O)N=C(Oc2ccccc2-c2ccccc2)c2ccccc21	inactive

# (list continues)

row,SMILES,Potency
1,Fc1ccc(-c2csc(-c3ccc(C4SCCS4)cc3)n2)cc1F,"inconclusive: 32.6 µM [activator, single point]"
2,CCc1ccc(-c2cc(C(F)(F)F)n3nc(C(=O)Nc4c(C)nn(Cc5ccccc5Cl)c4C)cc3n2)s1,"inconclusive: 13 µM [falling, single point]"
3,Cc1csc2c(N3CCN(C(=O)Nc4ccc(OC(F)(F)F)cc4)CC3)ncnc12,active: 20.6 µM
4,O=c1c(-c2nnc(SCc3ccc(Cl)c(Cl)c3)o2)cccn1Cc1ccccc1,"inconclusive: 29.1 µM [falling, single point]"
5,CCOC(=O)c1ccc(N2C(=O)Cc3cc(OCC)c(OCC)cc3C2c2ccccc2)cc1 (stereo not drawn),"inconclusive: 16.4 µM [falling, partial curve, poor fit]"
6,COc1cccc(CNS(=O)(=O)c2ccc(-c3cc(C(F)(F)F)on3)s2)c1,"inconclusive: 29.1 µM [falling, single point]"
7,COc1ccc(N(CC(=O)Nc2cc(Cl)ccc2C)S(=O)(=O)c2c(C)noc2C)cc1,"inactive and inconclusive: 103 nM [activator, full curve, poor fit]"
8,CCOc1ccc(NS(=O)(=O)c2ccc3[nH]cc(C(=O)N4CCCCCC4)c(=O)c3c2)cc1,"inconclusive: 29.1 µM [activator, single point]"
9,Cc1cc(NCc2ccccn2)n2nc(C)c(-c3ccccc3)c2n1,"inconclusive: 20.6 µM [falling, single point]"
10,O=C(/C=C/c1ccoc1)c1ccccc1O,"inconclusive: 9.2 µM [activator, partial curve, poor fit]"
11,CCCCCCSc1cc(-c2nc3cc(C)ccn3c2NCCCC)ccc1OC,"inconclusive: 23.1 µM [falling, single point]"
12,COc1ccccc1-n1c(SCc2cc(=O)oc3cc(O)ccc23)nc2ccccc2c1=O,inactive
13,O=C(C=Cc1ccccn1)c1ccccc1,"inconclusive: 18.4 µM [activator, partial curve]"
14,CCCCSc1nc(SCC(=O)NCc2ccco2)c2c3c(sc2n1)COC(C)(CC)C3 (stereo not drawn),"inconclusive: 6.51 µM [falling, single point]"
15,Cn1c(-[n+]2c(-c3ccccc3)cc(-c3ccccc3)cc2-c2ccccc2)nc2c([N+](=O)[O-])cccc21,"inconclusive: 18.4 µM [falling, single point]"
16,COc1cc(C(=S)N2CCN(c3cccc(Cl)c3)CC2)ccc1O,inactive
17,COc1ccccc1OCCCCn1c(-c2ccc(Cl)cc2)nc2ccccc2c1=O,inactive
18,CCOC(=O)N1CCC(=C2c3ccc(Cl)cc3CCc3cccnc32)CC1,inactive
19,COc1ccc(CCNC(=O)c2nc(SCc3ccc(C)cc3)ncc2Cl)cc1OC,"inconclusive: 20.6 µM [falling, single point]"
20,CCn1c(=NC(=O)CS(=O)(=O)c2ccccc2)sc2cccc(OC)c21,"inconclusive: 29.1 µM [falling, single point]"
21,CCCCC(O)(CCCC)C(=O)NN(C(=O)CCl)c1ccccc1,"inconclusive: 29.1 µM [falling, single point]"
